Binding signal data for 42 sequences are collected here from publication PMC7819943, “Rice protein-binding microarrays: a tool to detect cis-acting elements near promoter regions in rice”.

The other results are listed elsewhere or left out.

This test concerns the target T1, OsSMF1 (Oryza sativa, UniProt Q6ZLB0 1-436).
T1 sequence: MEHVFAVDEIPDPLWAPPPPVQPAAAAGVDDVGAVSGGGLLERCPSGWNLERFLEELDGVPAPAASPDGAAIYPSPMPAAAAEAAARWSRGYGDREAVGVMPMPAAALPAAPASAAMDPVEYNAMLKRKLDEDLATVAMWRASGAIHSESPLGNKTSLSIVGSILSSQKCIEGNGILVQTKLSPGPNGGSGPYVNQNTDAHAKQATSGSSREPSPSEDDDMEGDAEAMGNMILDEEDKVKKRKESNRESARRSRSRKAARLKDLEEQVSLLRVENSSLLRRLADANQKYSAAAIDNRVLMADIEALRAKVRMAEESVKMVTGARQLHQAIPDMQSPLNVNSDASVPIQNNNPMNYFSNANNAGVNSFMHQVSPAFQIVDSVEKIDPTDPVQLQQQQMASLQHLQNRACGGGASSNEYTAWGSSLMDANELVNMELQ
In words: protein-binding microarray (RPBM); PBS, 2% BSA, 51.3 ng/ul salmon testes DNA, 50 uM zinc acetate, 200 nM TF, 25 C, 1 h; high values mean tight binding. Conditions: protein: recombinant; tags: N-terminal polyhistidine and DsRed monomer fusion (pET32a); chain copies: 2; label: CyDye5-dUTP incorporated in the synthesized complementary strand; 3' TTTTT single-stranded linker to array surface; dsDNA, one strand shown. In a few lines: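 The binding signal is fluorescence intensity per feature, in arbitrary units, read on an Axon 4000B scanner. Polyhistidine- and DsRed-tagged transcription factors (N-terminal fusions) from E. coli BL21-CodonPlus were purified on Ni–NTA and applied at 200 nM for 1 h at 25 °C to a double-stranded, BSA-blocked custom Agilent array in buffer with 50 µM zinc acetate.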
As for “AAACTAGCAGGCACAAATTAAGCAAATGATCCATCATCATCGGAGTCACCTAGTGCAG”, the binding signal is 3160 fluorescence intensity (a.u.).

“GATAAGGCGCGTGGCACAGACCATTTTAATTTCCACATATCGGAGTCACCTAGTGCAG”: the binding signal is 4770 fluorescence intensity (a.u.).

In the case of “GACCGGTCAACCCGATAAGGTGTGTATAAATACATGGCGCCGGAGTCACCTAGTGCAG”, the binding signal is 3190 fluorescence intensity (a.u.).

“AAAATCATATACTTGTGCTGACGTCACGTCATCACTGCATCGGAGTCACCTAGTGCAG”: the binding signal was 20500 fluorescence intensity (a.u.).

As for “CATGCATCCAAATGACACGACACACTTAGATTCTAATAGGCGGAGTCACCTAGTGCAG”, the binding signal is 5590 fluorescence intensity (a.u.).

In the case of “CTAATAATTAATTGTTGTTGCATGAGAGCCAACACGTACGCGGAGTCACCTAGTGCAG”, the binding signal is 4220 fluorescence intensity (a.u.).

With “AGGACAACGCAGCTTGCTGGCTCAACCGCTCACGCACGTCCGGAGTCACCTAGTGCAG”, the binding signal was 10500 fluorescence intensity (a.u.).

As to “AACACACTAGTAATACGAATCTGAATATGGTACTAGGATACGGAGTCACCTAGTGCAG”, the binding signal is 64200 fluorescence intensity (a.u.).

On to “CGAAGGAAGATCTAGCCGTCCACGTGTCCCAGCGTGGCTGCGGAGTCACCTAGTGCAG”, for which the binding signal is 17000 fluorescence intensity (a.u.).

In the case of “CCGGATGCATGCGCGTAGCGTATGTGACGGCATTACGGAACGGAGTCACCTAGTGCAG”, the binding signal was 3390 fluorescence intensity (a.u.).

With “GGCGCCAGCACCAGCAGCAGCGGCCCATCACCACGCGGACCGGAGTCACCTAGTGCAG”, the binding signal is 4580 fluorescence intensity (a.u.).

“GTCCAGATTCGTTGTACTAGAATATGTCAGATCCAGTCCTCGGAGTCACCTAGTGCAG”: the binding signal is 3410 fluorescence intensity (a.u.).

Regarding “AATGGAACACTCGTTCTTTATATAAAATGTCAGCAACAGTCGGAGTCACCTAGTGCAG”, the binding signal was 38400 fluorescence intensity (a.u.).

With “CTCCTCCTCCTCCAGACCTCCACGCGAGCGTGCCCCGGGGCGGAGTCACCTAGTGCAG”, the binding signal is 4470 fluorescence intensity (a.u.).

For “AGATTGTTCACAAAATGTACATCTCTTATAATTATATAAGCGGAGTCACCTAGTGCAG”, the binding signal is 14600 fluorescence intensity (a.u.).

Regarding “TGCTCCGCACAGGGCCTGACGCGACGAGATGACATGGTCGCGGAGTCACCTAGTGCAG”, the binding signal is 4080 fluorescence intensity (a.u.).

Consider “CAGCCGCCAGCGCAACGGCCGCCGGCCGTCCGCGTCAGCCCGGAGTCACCTAGTGCAG”, for which the binding signal was 11500 fluorescence intensity (a.u.).

Consider “TCTTTCTTGGTGTTTGTTCAATATTTGTTTCATCCATGCTCGGAGTCACCTAGTGCAG”, for which the binding signal is 21900 fluorescence intensity (a.u.).

On to “GGAAGGGAGAGAGATGACTCATCCCCACACGTGGGACCCACGGAGTCACCTAGTGCAG”, for which the binding signal was 10600 fluorescence intensity (a.u.).

Take “TGCTGCTATAGATCTAGTCACTGTTTGCGCCATACTCTTGCGGAGTCACCTAGTGCAG”: the binding signal is 3600 fluorescence intensity (a.u.).

Turning to “ATCCTGACGCATCTCTGAACACAAGATGACGCATTGTGCCCGGAGTCACCTAGTGCAG”, the binding signal was 9450 fluorescence intensity (a.u.).

As for “AGATAAGTGATGTGGTTGATACAGACAGTGGGGTGCATATCGGAGTCACCTAGTGCAG”, the binding signal is 3760 fluorescence intensity (a.u.).

Take “ATTGACATGGAGTCATGGACACTCTCCCTGCCTCCTCCCTCGGAGTCACCTAGTGCAG”: the binding signal was 3370 fluorescence intensity (a.u.).

Take “ACCAGTGAAAGAGGTCGACGTATATGTAGTCGTTGTTTCGCGGAGTCACCTAGTGCAG”: the binding signal is 3140 fluorescence intensity (a.u.).

On to “ACCTTCTCGGTCGACATCGGAGATTAACCTAGACAAACCCCGGAGTCACCTAGTGCAG”, for which the binding signal is 3240 fluorescence intensity (a.u.).

Consider “AAATGGCACCGCTACAGTCTCCCCAAAGCTCCCACGTCCTCGGAGTCACCTAGTGCAG”, for which the binding signal is 3690 fluorescence intensity (a.u.).

With “ATATTCGTCTCTATCGCTTAAGGCGGTTAGTTGCGTGTCACGGAGTCACCTAGTGCAG”, the binding signal is 3930 fluorescence intensity (a.u.).

On to “GAATACTCTGTGAGCCTGTGTTGTGAGTTGTGACGAGGCACGGAGTCACCTAGTGCAG”, for which the binding signal is 5670 fluorescence intensity (a.u.).

With “GACCGAGAGCGGCAGGGGCGCAGAGCGCGACGCCAAGTCACGGAGTCACCTAGTGCAG”, the binding signal is 3590 fluorescence intensity (a.u.).

Take “AGCGACACGAGCGTCACGTGTCACGCTTACTCGAGTCATCCGGAGTCACCTAGTGCAG”: the binding signal was 6240 fluorescence intensity (a.u.).

With “GACTCCAAAATGTATGTATGTATGACGGGTGGGACCAGACCGGAGTCACCTAGTGCAG”, the binding signal is 4020 fluorescence intensity (a.u.).

For the sequence “TCGACATTCTAGCGAAAATAATTTTGAAAACACACAAAGTCGGAGTCACCTAGTGCAG”, the binding signal is 3830 fluorescence intensity (a.u.).

For the sequence “CCAGTGTTGTACAAACACTATATTACATGTCAATTTGACACGGAGTCACCTAGTGCAG”, the binding signal was 3260 fluorescence intensity (a.u.).

For “TCCAAGTATATGTATGTGGCAGTGTGTACTCCGCAGTTTACGGAGTCACCTAGTGCAG”, the binding signal was 4530 fluorescence intensity (a.u.).

On to “GCTGTCATGAGGACATGTCTTATTCTTGCGCGTGGCATGTCGGAGTCACCTAGTGCAG”, for which the binding signal was 4580 fluorescence intensity (a.u.).

Consider “TTGCTTACGGATTAAAAGGGAGGTCTTGACTCAACCCGTCCGGAGTCACCTAGTGCAG”, for which the binding signal was 3700 fluorescence intensity (a.u.).

“GAATCAGCTTGCTGACGTTAGAGGTTTCAGTTTACCTAATCGGAGTCACCTAGTGCAG”: the binding signal was 5180 fluorescence intensity (a.u.).

Turning to “AGGTTGCTATGCCGCCGTCCACGAGTGATGTCACCTTCATCGGAGTCACCTAGTGCAG”, the binding signal is 10200 fluorescence intensity (a.u.).

Regarding “TTCTTTGGTGGTTTTGATCCGATTTTGTCCTACGTGGCGGCGGAGTCACCTAGTGCAG”, the binding signal was 20100 fluorescence intensity (a.u.).

As for “AGCTACCTTTGAATTGTCTGGTCATGCCGGGCTGGTTGATCGGAGTCACCTAGTGCAG”, the binding signal is 3490 fluorescence intensity (a.u.).

Regarding “GTGTGTTGCTTACACATCGACCAAACAAATAAAATCAGTGCGGAGTCACCTAGTGCAG”, the binding signal is 4480 fluorescence intensity (a.u.).

Take “TAGGCCCAATCTCCATCCCCGCCACAGCTGACCACTCCGTCGGAGTCACCTAGTGCAG”: the binding signal is 3370 fluorescence intensity (a.u.).
